Source: patent US20210364527A1
Results are given in words; binding and its absence hold for the method and conditions named. Some binding calls cover weakened binding; strength is not graded here.

Protein sequences, listed by entry. Tags and fused reporters are not part of them. Lines headed by an entry give the natural chain unless they say otherwise; changes in a name come on top.
UniProt Q6WKZ8: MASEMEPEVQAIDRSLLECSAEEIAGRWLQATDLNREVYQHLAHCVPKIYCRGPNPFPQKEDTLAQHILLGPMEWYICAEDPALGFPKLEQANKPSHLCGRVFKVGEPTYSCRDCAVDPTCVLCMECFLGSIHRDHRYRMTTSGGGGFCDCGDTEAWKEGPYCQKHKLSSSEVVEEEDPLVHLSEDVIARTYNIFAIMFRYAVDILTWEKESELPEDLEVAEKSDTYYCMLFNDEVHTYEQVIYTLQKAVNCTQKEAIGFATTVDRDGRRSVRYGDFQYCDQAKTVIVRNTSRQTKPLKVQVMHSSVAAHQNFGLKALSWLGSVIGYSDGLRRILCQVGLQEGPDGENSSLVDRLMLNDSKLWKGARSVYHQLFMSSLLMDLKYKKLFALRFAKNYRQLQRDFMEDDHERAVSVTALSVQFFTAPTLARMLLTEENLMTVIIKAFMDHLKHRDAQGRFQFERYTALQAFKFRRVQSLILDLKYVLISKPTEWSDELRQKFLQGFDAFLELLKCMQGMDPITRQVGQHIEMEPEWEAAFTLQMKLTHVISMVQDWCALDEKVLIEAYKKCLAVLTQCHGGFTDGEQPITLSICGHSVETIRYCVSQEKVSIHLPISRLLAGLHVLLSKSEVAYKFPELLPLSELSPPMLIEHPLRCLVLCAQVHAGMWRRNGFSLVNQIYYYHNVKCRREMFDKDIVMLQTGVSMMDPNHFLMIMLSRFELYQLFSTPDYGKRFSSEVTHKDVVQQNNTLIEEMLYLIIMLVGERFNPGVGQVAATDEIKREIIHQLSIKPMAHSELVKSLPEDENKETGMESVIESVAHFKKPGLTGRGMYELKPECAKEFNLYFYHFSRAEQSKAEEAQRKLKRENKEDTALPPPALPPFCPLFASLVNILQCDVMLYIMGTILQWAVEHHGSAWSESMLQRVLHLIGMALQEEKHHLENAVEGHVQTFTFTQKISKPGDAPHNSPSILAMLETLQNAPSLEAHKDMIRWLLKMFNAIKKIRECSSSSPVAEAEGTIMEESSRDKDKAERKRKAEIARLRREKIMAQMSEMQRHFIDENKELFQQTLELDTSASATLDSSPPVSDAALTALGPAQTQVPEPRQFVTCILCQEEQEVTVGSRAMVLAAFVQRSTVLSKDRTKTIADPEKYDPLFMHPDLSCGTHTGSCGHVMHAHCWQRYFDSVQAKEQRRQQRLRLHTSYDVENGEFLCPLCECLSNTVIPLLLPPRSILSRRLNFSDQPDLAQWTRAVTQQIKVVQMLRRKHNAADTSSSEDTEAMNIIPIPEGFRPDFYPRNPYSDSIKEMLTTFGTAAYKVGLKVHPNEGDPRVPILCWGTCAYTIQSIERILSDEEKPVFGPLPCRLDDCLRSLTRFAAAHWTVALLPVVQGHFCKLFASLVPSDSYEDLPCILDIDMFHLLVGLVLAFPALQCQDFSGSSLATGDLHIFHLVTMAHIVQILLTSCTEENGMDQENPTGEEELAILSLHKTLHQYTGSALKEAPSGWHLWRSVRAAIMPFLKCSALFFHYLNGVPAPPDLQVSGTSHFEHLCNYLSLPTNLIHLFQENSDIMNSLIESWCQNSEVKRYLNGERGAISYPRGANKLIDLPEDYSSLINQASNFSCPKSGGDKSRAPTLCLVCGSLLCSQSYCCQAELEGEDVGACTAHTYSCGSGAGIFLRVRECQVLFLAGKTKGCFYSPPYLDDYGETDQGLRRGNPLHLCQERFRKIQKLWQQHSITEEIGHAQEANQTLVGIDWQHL

Columns and labels:
[1] = target: T1, FITC-labeled KA peptide …-FITC; assay: fluorescence polarization titration
T1 sequence (peptide, C-terminal FITC): KAKLDEESILKQK

[2] = target: T2, FITC-labeled RA peptide …-FITC; assay: fluorescence polarization titration
T2 sequence (peptide, C-terminal FITC): RAKLDEESILKQK

binding [1]: binds
binding [2]: binds
Substance: Mus musculus UBR-box domain (PS535) (from UniProt Q6WKZ8 98-168)
